Where a name gives a salt, the structure may show the parent alone. Marks after values point to notes of the source that are not given here.
Experiment: μCT analysis of OVX and Sham animals
Type: in vivo, mice
Conditions: Table 6; for Total area: ulnar midshaft - cortical, non-loaded, 20 mg/kg fenoldopam, mean±SEM

SMILES: Oc1ccc(C2CNCCc3c2cc(O)c(O)c3Cl)cc1 (stereo not drawn) [fenoldopam, Fenoldopam mesylate]
- Bone Mineral Density (cortical, OVX): 1079.5 ± 3.9 mg/mm^3
- Bone vol./Total vol. (cortical, OVX): 0.849 ± 0.003
- Cortical area (cortical, OVX): 0.261 ± 0.005 mm^2
- Cortical thickness (cortical, OVX): 0.151 ± 0.003 mm
- Imax (cortical, OVX): 0.018 ± 0.001 mm^4
- Imin (cortical, OVX): 0.004 ± 0.001 mm^4
- Marrow area (cortical, OVX): 0.046 ± 0.001 mm^2
- Bone Mineral Density (cortical, Sham): 1089.5 ± 5.7 mg/mm^3
- Bone vol./Total vol. (cortical, Sham): 0.859 ± 0.002
- Cortical area (cortical, Sham): 0.276 ± 0.008 mm^2
- Cortical thickness (cortical, Sham): 0.162 ± 0.001 mm
- Imax (cortical, Sham): 0.019 ± 0.002 mm^4
- Imin (cortical, Sham): 0.005 ± 0.001 mm^4
- Marrow area (cortical, Sham): 0.046 ± 0.001 mm^2
- Bone Mineral Density (trabecular, OVX): 201.9 ± 10.2 mg/mm^3
- Conn. Dens (trabecular, OVX): 187.6 ± 20.0 mm^−3
- SMI (trabecular, OVX): 1.807 ± 0.067+
- Tb. Number (trabecular, OVX): 4.853 ± 0.139* mm^−1
- Tb. Spacing (trabecular, OVX): 0.208 ± 0.006+ mm
- Tb. Thickness (trabecular, OVX): 0.0395 ± 0.0010 mm
- Bone Mineral Density (trabecular, Sham): 268.8 ± 10.3 mg/mm^3
- Conn. Dens (trabecular, Sham): 232.8 ± 22.6 mm^−3
- SMI (trabecular, Sham): 1.362 ± 0.083+
- Tb. Number (trabecular, Sham): 5.384 ± 0.159* mm^−1
- Tb. Spacing (trabecular, Sham): 0.182 ± 0.005+ mm
- Tb. Thickness (trabecular, Sham): 0.0445 ± 0.0015 mm
- Total area (OVX): 0.307 ± 0.005 mm^2
- Total area (Sham): 0.322 ± 0.009 mm^2
- Bone vol./Total vol. (ulnar proximal epiphysis - trabecular, OVX): 0.130 ± 0.008
- Bone vol./Total vol. (ulnar proximal epiphysis - trabecular, Sham): 0.183 ± 0.008
